Data from paper PMC5732150.

Key:
[1] = biological target: T1, CD44 (mouse (endogenous in splenic B lymphocytes)) (UniProt P15379); assay: co-IP; Lysates (RIPA buffer, 1% Triton X-100) of resting, LPS plus IL-4 activated, HA-stimulated or CD44-capped mouse B lymphocytes; precipitated with α-Myo1g or NIM-R8 (α-CD44), 4 h at 4°C, protein G-agarose; Western blot; CD44 precipitates compared between WT and Myo1g-deficient cells
T1 sequence: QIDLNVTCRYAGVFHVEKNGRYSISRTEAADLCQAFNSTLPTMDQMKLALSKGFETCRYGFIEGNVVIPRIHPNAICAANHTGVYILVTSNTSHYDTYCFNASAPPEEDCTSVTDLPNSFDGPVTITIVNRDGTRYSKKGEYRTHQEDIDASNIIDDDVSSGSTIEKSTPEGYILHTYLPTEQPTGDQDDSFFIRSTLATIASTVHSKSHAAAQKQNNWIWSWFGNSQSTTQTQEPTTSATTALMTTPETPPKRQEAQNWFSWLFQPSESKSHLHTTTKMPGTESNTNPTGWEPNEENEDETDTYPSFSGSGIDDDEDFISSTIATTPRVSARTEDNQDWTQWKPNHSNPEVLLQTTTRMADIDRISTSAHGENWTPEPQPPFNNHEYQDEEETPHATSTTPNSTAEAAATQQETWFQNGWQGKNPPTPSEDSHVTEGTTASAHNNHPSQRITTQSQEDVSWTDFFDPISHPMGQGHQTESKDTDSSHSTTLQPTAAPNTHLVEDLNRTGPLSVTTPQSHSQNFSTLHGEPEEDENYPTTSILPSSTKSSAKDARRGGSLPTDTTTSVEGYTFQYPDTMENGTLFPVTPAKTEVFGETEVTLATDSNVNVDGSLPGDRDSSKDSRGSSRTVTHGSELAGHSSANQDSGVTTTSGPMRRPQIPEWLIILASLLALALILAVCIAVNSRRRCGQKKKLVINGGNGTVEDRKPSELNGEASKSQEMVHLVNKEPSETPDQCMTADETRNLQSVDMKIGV

[2] = biological target: T2, Myosin 1g (mouse (endogenous in splenic B lymphocytes)) (UniProt Q5SUA5); assay: as above
T2 sequence: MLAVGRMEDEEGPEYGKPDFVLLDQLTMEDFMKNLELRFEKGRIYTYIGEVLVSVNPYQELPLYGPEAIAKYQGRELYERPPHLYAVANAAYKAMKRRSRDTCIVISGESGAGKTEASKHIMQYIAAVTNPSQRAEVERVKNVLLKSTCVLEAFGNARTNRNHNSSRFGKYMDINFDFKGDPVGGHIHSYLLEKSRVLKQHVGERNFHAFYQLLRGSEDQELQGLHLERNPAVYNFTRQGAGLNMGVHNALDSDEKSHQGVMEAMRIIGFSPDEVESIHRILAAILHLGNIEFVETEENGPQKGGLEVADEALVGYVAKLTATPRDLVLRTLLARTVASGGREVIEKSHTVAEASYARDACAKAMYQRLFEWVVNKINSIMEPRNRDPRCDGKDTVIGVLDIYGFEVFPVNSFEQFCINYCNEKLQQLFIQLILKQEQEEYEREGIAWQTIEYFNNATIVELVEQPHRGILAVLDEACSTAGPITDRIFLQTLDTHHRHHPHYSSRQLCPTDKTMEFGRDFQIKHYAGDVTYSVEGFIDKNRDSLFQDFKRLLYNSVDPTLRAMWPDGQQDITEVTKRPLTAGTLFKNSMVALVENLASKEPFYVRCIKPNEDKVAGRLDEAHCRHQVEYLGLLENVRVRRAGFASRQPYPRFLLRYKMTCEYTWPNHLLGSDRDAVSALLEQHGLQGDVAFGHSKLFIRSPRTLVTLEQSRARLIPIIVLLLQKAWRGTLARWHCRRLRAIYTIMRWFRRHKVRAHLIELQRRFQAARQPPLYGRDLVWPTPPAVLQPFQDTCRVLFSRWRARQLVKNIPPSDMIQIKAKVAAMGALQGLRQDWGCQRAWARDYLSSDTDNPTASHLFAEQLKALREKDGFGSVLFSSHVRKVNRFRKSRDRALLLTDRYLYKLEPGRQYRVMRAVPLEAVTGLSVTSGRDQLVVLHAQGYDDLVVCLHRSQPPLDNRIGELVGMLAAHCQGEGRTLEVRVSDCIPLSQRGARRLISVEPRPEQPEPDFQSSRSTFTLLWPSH

Substance | binding [1] | binding [2]
Rab5 | binds | 
caveolin |  | binds

No constants are given. Whether binding was seen depends on the method and setting. Binding seen in cells or lysates may run through a third protein. Binding calls can cover weak binding; strength is not graded here.
